Out of some 53,000 sequences screened, about 3,700 (7%) were called active.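 How the source made its calls: active means gene knockdowns whose robust z-score for IL-1 alpha signal is at least 2 or at most -2, so actives lie on both sides; inactive means the rest.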 Some of the results follow.

The nature of the assay: Components of the Cytosolic LPS Sensing Pathway: Gene Identification via Genome-wide siRNA Screen.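 Further: robust z of the log signal after scaling to non-targeting control siRNA wells of the plate.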 Particulars: RAW264.7 macrophages, IL-1a HTRF, actives lie on both sides, screened at 100 nM (by protocol), cells primed 5 h with Pam3CSK4 first. The method, boiled down: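 Three distinct siRNAs per gene were tested singly at 100 nM in RAW264.7 macrophages. Following Pam3CSK4 priming and 24 hour LipidA transfection, IL-1a secretion was read by HTRF.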
(In general: TR-FRET usually uses a lanthanide donor and a delayed reading to cut background.)
Take UGGAUACUCUAUCUCAAGCTT against Serpinb9g: the z-score was inactive: -0.479. Turning to GGUCAUGUUUCUCUCCCAATT against Veph1, the z-score is active: -2.11. Then GGAACUGGCAAGACAACCATT against Rfc2, with inactive: -1.05.

Consider GGCAUCUAUACCAGUAAUATT against Mllt6, for which the z-score was inactive: -0.562. As for CGAAUUCAAAAAGCUAGAGTT against Gsto1, the z-score was inactive: 0.0531. As to GGCGUGUCUUGAUAGAAAUTT against Tesmin, the z-score was inactive: 0.652. On to GCAUGCAGCCUAUGGAUGCTT against Slc22a15, for which the z-score was inactive: 0.817.

For GCAAAAAUGGUUCUCCAUATT against Plxnc1, the z-score was inactive: 0.0474.

With GGAAUUUGUAUGGUCUCUGTT against Cntln, the z-score was inactive: -0.0324.

Consider GGGUUGAUUUGGUGUUUUATT against Usp46, for which the z-score is inactive: 0.673.

In the case of GCAAGUUGAGAACAUCAAGTT against Diaph1, the z-score is inactive: 0.955. Turning to CGCGUUCGGUUAUGUAAAUTT against Wnt1, the z-score is inactive: -0.134. Then CCCAGGCCACUGAUCUAAGTT against Chrm5, with inactive: 0.775; and CCUGUAAAGUGUGAUAUUATT against Acot12, with inactive: 0.508.

Regarding GGUGAACGCAUCCGCUAGUTT against Fscn1, the z-score was inactive: 0.459. Turning to GGCAAGGAUAAGACAGUAGTT against Hs3st3b1, the z-score is inactive: -0.354.

For GGGCUAAGUGUUGAAUUUATT against Csnk1e, the z-score is inactive: 0.268. Then GGGCCAUUGUCAAGGUGAUTT against Olfr632, with inactive: -0.408; and CCCAACAAAAUGCGCGAUUTT against Rasa2, with inactive: -0.226. Then GGUUUGGCUUAGCUCAUCATT against Mettl24, with active: -2.72; and GGUUCCUGGGAACCUAAGUTT against Med25, with active: 2.02; and GGGACAUGCCUGAAAAAUGTT against Nxnl1, with inactive: -0.641.

For the sequence GGCCUUCACUGGUUAAAAUTT against Ankrd6, the z-score was inactive: 0.0966. In the case of GGUACAUCGCCAUUUGCCATT against Trhr2, the z-score was inactive: -0.617. Take GGAGAAGAAGUUCUUGCUGTT against Cnnm2: the z-score was inactive: 0.105. Then GGGCUCCACAUGUUUGCAUTT against Ehmt1, with inactive: 0.392; and GGUUUUAAAGGAGACCCAGTT against C1qa, with inactive: 0.646. With GGGCUUAGCUCACCUUCAUTT against Nrk, the z-score is inactive: -1.61. In the case of GGACGAGAAAGCAAAGCAGTT against Mllt10, the z-score was inactive: -0.211. Then GGCUAAUGGACAAAAAAUUTT against Pacrgl, with inactive: 0.28; and GCACUAGUUCUCAAUUUAATT against Antxr1, with inactive: -1.33; and GGAUGAGUUCUUCUUCGGCTT against Desi1, with inactive: 0.974. Then GCUUGGACUGGCUGAAGAATT against Ndufa3, with inactive: 0.728; and GGACUAGCCCUCUUUUAUUTT against Cd163l1, with inactive: -0.0583. As for GCUAUUGAAGUCUCUUCCGTT against Slc14a1, the z-score was inactive: 0.515.

As for GGAUCAUGGUCAUCACUGUTT against Slc35e1, the z-score was inactive: -1.5. Then GCUCGUCUAUGCUAUUUCUTT against Fat1, with inactive: -0.835; and GGUCUUAGAUAUUUUAGGCTT against Nampt, with inactive: -0.406. Then GGCAGUGACUCUUCAGAAGTT against Ibsp, with inactive: 0.87.

On to GGCAUUAGCAUCUACCCAGTT against Syt11, for which the z-score is inactive: -1.23.

Consider GCAAUACUAUUCAGUCCAUTT against Gnai3, for which the z-score is active: -2.45. Then GGCGGAGAACCAUUGAGGATT against Phf23, with inactive: 0.917; and GGAACCUGAAAAUGUAUGUTT against Cxcl10, with inactive: 0.988.

GGGCUACGACAGAAUCAUCTT against Nxpe4: the z-score is inactive: -1.02. Then GCGUACGUUCUCCUAACAUTT against Hbs1l, with inactive: -1.9; and GGAUCCUAGGAUUCUUGGUTT against Slfn5, with inactive: -1.98; and GGCACUCAGAAAUAUUCAGTT against Nap1l3, with active: 3.84. Regarding CCUACUGAAACAAUCACACTT against Il20ra, the z-score was inactive: -0.362. Then CCUUCUUGCUCACAAAGUATT against Kcnt1, with inactive: 1.1; and GGCAUCUCUUUGCUUGAAUTT against Lalba, with inactive: -0.86; and GCAUCUUACGCAUUAAAUCTT against Olfr935, with inactive: -1.83. Then CGUUUUAUGUGGCAAGCAUTT against Olfr1306, with inactive: 0.883; and GGAGUGUACAUUCUGAUUGTT against Cd9, with inactive: -0.677.

Regarding GCAAGUCCUAGUGUCCUGATT against N6amt1, the z-score was inactive: -0.213.

Regarding GGAUGUCCUUGUUUCCUUCTT against Sult5a1, the z-score is inactive: -0.879. On to CCUGUUUCAGUCAUUAGUGTT against Slc22a2, for which the z-score was active: 2.6. For GGAAAUAGAUUCAUUGAAGTT against Slc6a14, the z-score was inactive: 0.342. As to GGCCUUAUGUCUUGUAUAUTT against Pip5k1b, the z-score is inactive: 0.21. Then GCCUAUGUACUGGUCAAGCTT against Atg2b, with inactive: 1.6; and GGGUAGAAUGACUUUGGCCTT against Cldn2, with inactive: 1.19.

Turning to GGAGAUUAACCGGAGAAUGTT against Ptpra, the z-score is inactive: 1.26. GGCUGAGAAGCAAAAACUCTT against Olfr1496: the z-score was inactive: -0.686. Then GGAGCAGUGCAUUGAGACCTT against Adcy6, with active: 2.34; and GGAGAAGCUGAAAUUGAAATT against Cfi, with inactive: -0.204. In the case of GGGUAACAUGAAGAUCAAUTT against Rnf19a, the z-score is inactive: 0.488. Then GCACUCCUGAACCAUUCUCTT against Tubb4a, with inactive: 0.0643.

As for GCACACGUUACAAUUACAGTT against Cxcr2, the z-score was inactive: -0.231. With UUUGCUGUCCUUUCUUUCATT against Olfr122, the z-score is inactive: -1.84. For the sequence GCUUGUAGUGACUGCCUAUTT against Vmn1r30, the z-score is inactive: -0.296. Then GGCUUCAUUUACUGUAACGTT against Flrt3, with inactive: -0.12; and GCACCUAGCAUAGCAAUGGTT against Slc24a1, with inactive: 0.695. CCCAGAAAUUUCAACUACATT against Cd300ld3: the z-score was inactive: 0.0923. Then GCGGGCCAUGACAAUUACUTT against Slc45a1, with inactive: 0.566; and GCCUAAGGCGCAUAAAUUCTT against Lca5l, with inactive: -0.647.

Turning to GGCAGGUGUUAAGGCUUCATT against Tas2r117, the z-score was inactive: 0.873. Turning to GGUAUUCCUGUCUCAGGUCTT against Matn1, the z-score is inactive: -0.59. Then GGAAGAAGUACUGAGAAGATT against Ctsq, with inactive: -0.0505; and GCGUAGCCCUCAUAAGUCUTT against Ppp1r35, with inactive: 0.713; and GGUAAUUUUCCAGAGCCAUTT against Adad1, with inactive: -1.2.

Regarding GGGACAUUAAUAAACCUGATT against Omg, the z-score was inactive: -0.269. In the case of CGGUGAUGGUUCAUUUGCATT against Zmiz2, the z-score was inactive: 1.36. On to GGGAAAAUUUCAAUGAGAGTT against Slc16a10, for which the z-score was inactive: 0.341.

With CCAUUUAUGGGUUUUCUCUTT against Taar7b, the z-score was inactive: 0.12. Then GCAGCAAUUUCGGGUACUCTT against Gfus, with inactive: 1.11; and GCAACUAUUACUUAGCCAUTT against Fgf10, with inactive: 0.514; and GCAUCUCUCCAACCUUCCGTT against Amer2, with inactive: 0.46. Then CCAUCUUACUGAAUACAAATT against Iqgap1, with inactive: 1.3.

In the case of GGCAUUGCAUUCUCACAUGTT against Gabarapl1, the z-score is inactive: 0.319.

Regarding GCUGUUUCAAAAGUCAUAUTT against Col11a1, the z-score is inactive: 1.96.

In the case of CCUUCUCUUUGCUCUAUGUTT against Olfr1284, the z-score is inactive: -0.647. Then GCCUGUCCUAAACUUGACCTT against Cdh13, with inactive: -0.775; and CGAGCAAAUCUCAUUCAAGTT against Oxgr1, with active: 3.07; and GCUACACGAAGAGGAACUUTT against Prph, with inactive: -0.523. For GGGAGUAGAGAAGAAGGUGTT against Dpf3, the z-score was inactive: 0.569.

For the sequence GGAAGAAAAAACCUUCUGGTT against Ccdc70, the z-score was inactive: -0.0176. On to CCUCUUAUAUGCAUGUGGCTT against Olfr410, for which the z-score is active: -2.13. Then GCGACUACUACACAGACGATT against Ext2, with inactive: 0.127.

With GGGAUUAUCAUGCUUCAGATT against Tmem87a, the z-score is inactive: 0.824.

Consider GGCAUCUUUUGAAACAAUATT against Ubxn8, for which the z-score was inactive: -1.04.

For GGUGGUUUUCCUCCUCUGUTT against Kdelr3, the z-score was inactive: -1.69. Consider GGCUGAAGAGGUUUUACGATT against Cyria, for which the z-score was inactive: -0.415. Take “GGAUCAUGCAAACCAAAGCTT against 4930522H14Rik”: the z-score is inactive: 0.193. Turning to CGUGCUGGUAACGGAAUUGTT against Ptger2, the z-score is active: 2.29.

Regarding GAGUGAGAAAGCCAGAGACTT against Acaa1a, the z-score was inactive: 0.188. Then GGACUGCAUCUUUAAAGAATT against Aasdh, with inactive: 1.59. Take GGCAGUGUGUUAGAUUCUUTT against Cts3: the z-score was active: 2.35. Regarding CCAAGGUGAGGACUUUCCATT against Erp29, the z-score is inactive: -0.387.

These data come from PubChem BioAssay AID1508600 (Functional Genomics Laboratory (NCATS/FGL), 2020).
